Measurements taken from PubChem BioAssay AID504834 (National Center for Advancing Translational Sciences (NCATS), 2011).
Among all 320,000 compounds or so, about 22,000 (6.9%) were called active. Inconclusive means that the source gave no clear call. Such entries were picked first, then a sample of the others. Calls come from the whole dose curve; as a rule, active = well fitted inhibition curve with a large enough effect; inconclusive = small, poorly fitted or top-dose-only effect, or another doubt; inactive = no such curve, though single readings can be large or run the other way. A potency beside an inconclusive call is a rough fit, not a confirmed value.
Potency is the fitted concentration of half-maximal effect.

Test: Primary qHTS for delayed death inhibitors of the malarial parasite plastid, 96 hour incubation
Conditions: P. falciparum luciferase reporter growth; series mostly up to 28.7 µM
How it was run: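 96 h incubation, 37 C, 5% CO2, of luciferase-reporter P. falciparum-infected RBCs (2% hematocrit, 0.05% parasitemia final) with test compounds; endpoint luminescence.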
For `COc1cc2ccccc2cc1C(=O)Nc1ccc(S(=O)(=O)Nc2cc(C)on2)cc1`, the Potency was “inactive”. With `CCOc1ccc(C(=O)Nc2cccc(-c3ccc4nncn4n3)c2)cc1` the Potency was inconclusive: 10.4 µM [inhibitor, single point]. For `CCN(CC)c1ccc(/C=C/C(=O)c2cccnc2)cc1`, the Potency was inconclusive: 0.37 µM [inhibitor, full curve]. For `CCOC(=O)c1ccc(NC(=O)c2cc3c(s2)CCC3)cc1`, the Potency was “inactive”. With `CCN(CC)C(=O)c1ccc(COc2ccccc2Cl)o1` the Potency was inconclusive: 8.28 µM [inhibitor, partial curve, poor fit]. For `Cc1ccc(S(=O)(=O)N2[C@@H](c3ccccc3F)C(C(=O)O)=CC[C@H]2c2cccc(Cl)c2)cc1`, the Potency was inconclusive: 10.4 µM [inhibitor, partial curve, poor fit]. In the case of `CN(CCNC(=O)c1ccc(N2CCCC2=O)cc1)CCc1ccccc1`, the Potency is reported as active: 8.28 µM. For `CCCC(=O)Nc1ccc2nc(SCC(=O)Nc3ccc(N4CCOCC4)c(Cl)c3)sc2c1`, the Potency was inconclusive: 0.465 µM [inhibitor, full curve, poor fit]. In the case of `COc1ccc(-c2nc(CN3CCC(c4ccccc4)CC3)c(C)o2)cc1OC`, the Potency is reported as active: 13.1 µM. For `CCc1ccc(N(C(=O)c2csnn2)C(C(=O)NC2CCCC2)c2cccnc2)cc1` (stereo not given), the Potency was inconclusive: 0.738 µM [inhibitor, partial curve, poor fit]. With `O=C(CSc1cn(CCNC(=O)c2cccs2)c2ccccc12)NC1CCCCC1` the Potency was inconclusive: 18.5 µM [inhibitor, single point]. In the case of `COc1ccc(C(O)(CCc2ccccc2)CCN2CCCCC2)cc1` (stereo not given), the Potency is reported as “inactive”. For `CNC(=O)c1c(NC(=O)c2ccc(S(=O)(=O)N(C)c3ccccc3)cc2)sc2c1CCN(C(C)C)C2`, the Potency was inconclusive: 0.165 µM [inhibitor, full curve]. In the case of `CC(OC(=O)CCCOc1ccccc1)C(=O)Nc1ccc(Cl)cn1` (stereo not given), the Potency is reported as “inactive”. With `Cc1ccc(N2CCN(CC(=O)Nc3c(C(=O)C4CC4)oc4ccccc34)CC2)cc1` the Potency was “inactive”. In the case of `O=C(NCC1CCCO1)C1CC1(c1ccccc1)c1ccccc1` (stereo not given), the Potency is reported as “inactive”. With `COc1ccc(CCNS(=O)(=O)c2ccc3c(c2)NC(=O)CS3)cc1OC` the Potency was inconclusive: 13.1 µM [inhibitor, single point]. In the case of `CN(CCN1CCOCC1)Cc1nc(-c2ccc3c(c2)OCO3)no1`, the Potency is reported as inconclusive: 16.5 µM [inhibitor, single point]. In the case of `CNCCC(Oc1ccccc1OC)c1ccccc1` (stereo not given), the Potency is reported as “inactive”. In the case of `CC1CCCCN1Cc1ccc(-c2nn[nH]n2)cc1` (stereo not given), the Potency is reported as inconclusive: 0.0033 µM [inhibitor, full curve, poor fit]. With `CCC(C)(C)NC(=O)C(c1ccncc1)N(Cc1cccs1)C(=O)Cn1nnc2ccccc21` (stereo not given) the Potency was active: 11.7 µM. With `COC(=O)C1=C(c2c(C)noc2C)C[C@@H]2CC[C@H]1N2C(=O)NCc1ccc2c(c1)OCO2` the Potency was inconclusive: 3.29 µM [inhibitor, single point]. For `CCCCn1c(N)c(N(CCOC)C(=O)CSc2nnc(-c3ccc(C(C)(C)C)cc3)n2N)c(=O)[nH]c1=O`, the Potency was inconclusive: 18.5 µM [inhibitor, single point]. For `Cc1onc(-c2c(Cl)cccc2Cl)c1C(=O)Nc1c(C)n(C)n(-c2ccccc2)c1=O`, the Potency was inconclusive: 13.1 µM [inhibitor, single point]. With `C/C(=N\NC(=S)NC(C)C)c1ccc(Cl)s1` the Potency was inconclusive: 18.5 µM [inhibitor, single point]. With `O=C(Nc1ccc(N2CCN(Cc3ccccc3F)CC2)cc1)c1ccccc1[N+](=O)[O-]` the Potency was “inactive”. For `COc1ccc(CNC(=O)COC(=O)CCC(=O)c2cccs2)cc1`, the Potency was “inactive”. For `CCN(CC)CCOCCOc1cc(C)c(Cl)c(C)c1`, the Potency was “inactive”. With `COc1c(C)cc(C(=O)C2CCCN(C(=O)c3ccoc3)C2)cc1C` (stereo not given) the Potency was inconclusive: 18.5 µM [inhibitor, single point]. For `COc1ccc(/C(O)=C2\C(=O)C(=O)N(c3cc(C)on3)C2c2ccc(OC)c(OC)c2)cc1OC` (stereo not given), the Potency was inconclusive: 0.0586 µM [inhibitor, full curve, poor fit]. With `CC(C)(CO)NCC(=O)Nc1cc(C(F)(F)F)cc(NC(=O)CNC(C)(C)CO)c1Cl` the Potency was “inactive”. In the case of `COC(=O)CC(N)c1ccc(OC)c2ccccc12` (stereo not given), the Potency is reported as “inactive”. For `O=C(Nc1ccc(C(=O)NCc2ccccc2)cc1)C1=CSCCO1`, the Potency was inconclusive: 18.5 µM [inhibitor, single point]. With `Cc1ccc(S(=O)(=O)n2nc(OC(=O)C3CCCCC3)cc2N)cc1` the Potency was inconclusive: 11.7 µM [inhibitor, single point]. For `O=C(c1ccccc1)[C@@H]1[C@@H](C(=O)c2ccc(F)cc2)[C@@]2(C(=O)Nc3ccccc32)[C@H]2c3ccccc3C=CN12`, the Potency was inconclusive: 14.7 µM [inhibitor, single point]. In the case of `O=C(OCC(O)COc1ccccc1)c1ccc([N+](=O)[O-])cc1` (stereo not given), the Potency is reported as “inactive”. For `C#CCNC(=O)/C=C/c1ccc(C)cc1`, the Potency was “inactive”. In the case of `O=C(C[n+]1ccccc1)Nc1c(Cl)cc(Cl)cc1Cl`, the Potency is reported as “inactive”. With `COC(=O)CCC(=O)OC1(C)C(=O)C=C2C=C(C3CC3)N(Cc3ccccc3)C=C2C1=O` (stereo not given) the Potency was inconclusive: 13.1 µM [inhibitor, single point]. With `CCOc1cccc(-c2cc(C(=O)NN)[nH]n2)c1` the Potency was inconclusive: 8.28 µM [inhibitor, partial curve]. For `O=C(N/N=C/c1cc(Br)ccc1O)c1ccncc1`, the Potency was active: 1.65 µM. For `O=C(NCCc1csc(-c2cccnc2)n1)c1cccs1`, the Potency was inconclusive: 9.28 µM [inhibitor, single point]. For `O=C(NC(=O)N1CCN(c2ccccc2)CC1)c1ccc(Cl)cc1`, the Potency was “inactive”. With `COc1cc(/C=c2/sc3nc(-c4ccccc4)c(-c4ccccc4)n3c2=O)cc(OC)c1OC` the Potency was inconclusive: 18.5 µM [inhibitor, single point]. In the case of `COc1ccc(OC)c(NC(=O)c2ccc3c(c2)OCO3)c1`, the Potency is reported as inconclusive: 6.57 µM [inhibitor, partial curve, poor fit]. For `Cc1cc(NC(=O)CC2Oc3ccccc3NC2=O)ccc1Br` (stereo not given), the Potency was inconclusive: 4.65 µM [inhibitor, partial curve]. For `Cc1cccc(CSc2ccc(-c3cccs3)nn2)c1`, the Potency was inconclusive: 18.5 µM [inhibitor, single point]. With `O=S(=O)(Nc1ccc2c(c1)OCCO2)c1cccc2nsnc12` the Potency was inconclusive: 18.5 µM [inhibitor, partial curve, poor fit]. With `Cc1sc2ncnc(N3CCC(C(=O)NNC(=O)c4ccc(Cl)cc4)CC3)c2c1C` the Potency was inconclusive: 18.5 µM [inhibitor, partial curve, poor fit]. For `CCOc1ccc(C2CC(c3ccccc3C)n3ncnc3N2)cc1` (stereo not given), the Potency was inconclusive: 18.5 µM [inhibitor, single point]. With `Cc1ccc2nc(-c3cccs3)oc(=O)c2c1` the Potency was inconclusive: 0.586 µM [inhibitor, full curve, poor fit]. With `COc1ccccc1O` the Potency was “inactive”. For `O=C(c1cc(COc2c(F)cccc2F)on1)N1CCC(c2ccncc2)CC1`, the Potency was inconclusive: 6.57 µM [inhibitor, partial curve]. For `CC1=Nc2ncnn2C(c2ccccc2)/C1=N\O` (stereo not given), the Potency was inconclusive: 1.31 µM [inhibitor, partial curve, poor fit]. In the case of `O=C(N=C1SC2CS(=O)(=O)CC2N1c1cccc(Cl)c1Cl)C1CCCO1` (stereo not given), the Potency is reported as “inactive”. With `O=C(C1CCCN(S(=O)(=O)c2ccc(F)cc2)C1)N1CCCCC1` (stereo not given) the Potency was inconclusive: 13.1 µM [inhibitor, single point]. With `Cn1ncc([N+](=O)[O-])c1C(=O)NC1CCCCC1` the Potency was “inactive”. With `C(=C\c1cc(/C=C/c2ccccc2)ncn1)/c1ccccc1` the Potency was inconclusive: 5.86 µM [inhibitor, single point]. In the case of `c1ccc2c(N3CCCC3)nc(-c3ccncc3)nc2c1`, the Potency is reported as inconclusive: 3.7 µM [inhibitor, full curve, poor fit]. For `COc1ccc(CN(C)C(=O)CCCNC(=O)c2ccc(Cl)cc2)cc1`, the Potency was inconclusive: 9.28 µM [inhibitor, single point]. With `CC(C)OC(=O)c1ccc(NC(=O)CSc2nc3ncccc3[nH]2)cc1` the Potency was inconclusive: 6.57 µM [inhibitor, partial curve]. With `CCCc1nn(C)c(C(=O)Nc2ccc(C)c(C)c2)c1Cl` the Potency was “inactive”. With `Cc1ccc(OCCCCNC2CCCC(C)C2C)c(C)c1` (stereo not given) the Potency was inconclusive: 18.5 µM [inhibitor, single point]. With `Cc1ccc(Cl)cc1NC(=S)N(Cc1ccco1)C(C)c1cccs1` (stereo not given) the Potency was inconclusive: 18.5 µM [inhibitor, single point]. For `O=[N+]([O-])c1ccc(S(=O)(=O)Nc2ccccn2)cc1`, the Potency was inconclusive: 1.04 µM [inhibitor, partial curve]. For `CCCCCCc1ccc(O)cc1O`, the Potency was inconclusive: 19 µM [inhibitor, single point]. For `Cc1ccc(NC(=O)Cn2ncc(Cl)c(Cl)c2=O)cc1S(=O)(=O)N1CCCCC1`, the Potency was inconclusive: 9.28 µM [inhibitor, single point]. In the case of `CCOC(=O)C1=C(N)Oc2ccc3ccccc3c2C1c1ccc(O)cc1` (stereo not given), the Potency is reported as inconclusive: 8.28 µM [inhibitor, partial curve, poor fit]. In the case of `NC(=O)C1CCN(C(=O)c2ccc3c(=O)n(Cc4ccco4)c(SCc4ccc([N+](=O)[O-])cc4)nc3c2)CC1`, the Potency is reported as inconclusive: 10.4 µM [inhibitor, single point]. For `CCC(C)NC(=O)CN(C)S(=O)(=O)c1ccc2c(c1)c(=O)n(C)c(=O)n2C` (stereo not given), the Potency was inconclusive: 13.1 µM [inhibitor, single point].
